According to PubChem BioAssay AID330 (DTP/NCI, 2004):
The list shows only some results of the screen, not a fair sample: it gathers tests that were run many times, whatever their T/C, doses with no T/C, and many T/C values between a quarter and a half above the control. Further doses and runs are listed elsewhere. T/C is the treated group as % of the vehicle group. Some entries give survivors of the animals treated and no T/C: the source holds a T/C of zero for them, seemingly a mark for toxic or unscored doses. Some survivor counts are full or nearly so, which does not show that the dose was tolerated: survival well below the control is almost never listed, so the zero probably covers shortened survival too. Survivors were counted at the toxicity check, usually on the fifth day, unless a day is given; later deaths do not show. Schedules are NCI's codes, taken here to give the interval after Q, in days (D) or hours (H), and the number of doses after X. Some doses were run more than once; the results are listed from low to high. For survival time, this PubChem deposit counts one and a half times the control or more as active, and values a quarter to a half above the control carry no call in these data; other NCI protocols may use other cut-offs. Some T/C values are followed by the survivors on the day toxicity was checked, most often the fifth; without a count, all were alive then.

Tested on: P388 leukemia ip, CD2F1 mice, survival T/C
Assay: NCI In Vivo Anticancer Drug Screen. Data for tumor model P388 Leukemia (intraperitoneal) in CD2F1 (CDF1) mice
Details: T/C endpoint: median survival time, higher T/C = longer survival
[1] = dose: 120.0 mg/kg/injection, schedule: Q01DX005 (ip), vehicle: Klucel (hydroxypropylcellulose) (HPC)
[2] = dose: 6.0 mg/kg/injection, schedule: Q01DX005 (ip), vehicle: saline

With `[Cl][Pt][Cl].[NH-]CCC[N-]CCCC[N-]CCC[NH-]` the T/C (dose: 6.25 mg/kg/injection, schedule: Q04DX003 (ip), vehicle: saline) was 130 % of control, the T/C (dose: 25.0 mg/kg/injection, schedule: Q04DX003 (ip), vehicle: saline) was 129 % of control [5 of 6 alive] and the survivor count (dose: 50.0 mg/kg/injection, schedule: Q04DX003 (ip), vehicle: saline) was 0 of 6 and 2 of 6. For the same compound, the survivor count (dose: 100.0 mg/kg/injection, schedule: Q04DX003 (ip), vehicle: saline) was 1 of 6 and the survivor count (dose: 200.0 mg/kg/injection, schedule: Q04DX003 (ip), vehicle: saline) was 0 of 6.

In the case of `Nc1ncnc(N)c1NC(=O)c1ccccc1`, the survivor count (dose: 240.0 mg/kg/injection, schedule: Q01DX005 (ip), vehicle: suspension in saline) is reported as 0 of 6.

For `COC(=O)C1(CC(=O)/C=C/c2ccccc2)NC(=S)NC(=O)C1C#N` (stereo not drawn), the survivor count [1] was 4 of 6 and 6 of 6.

`C1=Nc2ccccc2N=Cc2ccccc2NCCNc2ccccc21` was tested, and the survivor count (dose: 50.0 mg/kg/injection, schedule: Q01DX009 (ip), vehicle: saline) was 6 of 6, the survivor count (dose: 100.0 mg/kg/injection, schedule: Q01DX009 (ip), vehicle: saline) was 6 of 6 and the survivor count (dose: 200.0 mg/kg/injection, schedule: Q01DX009 (ip), vehicle: saline) was 6 of 6.

With `COC1(OC)CCC(=O)N(Cc2ccccc2)c2cc(C)c(N(Cc3ccccc3)S(=O)(=O)c3ccc(C)cc3)cc2C1C` (stereo not drawn) the survivor count (dose: 100.0 mg/kg/injection, schedule: Q01DX005 (ip), vehicle: saline with Tween-80) was 6 of 6 and the survivor count (dose: 200.0 mg/kg/injection, schedule: Q01DX005 (ip), vehicle: saline with Tween-80) was 6 of 6.

For `O=C(Nc1ccc(Cc2ccc(NC(=O)Nc3nccs3)cc2)cc1)Nc1nccs1`, the survivor count (dose: 12.5 mg/kg/injection, schedule: Q01DX009 (ip), vehicle: Klucel (hydroxypropylcellulose) (HPC)) was 6 of 6.

With `CCCC[N+](CCCC)=c1ccc2nc3c(C)cc(N(CC)CC)cc3sc-2c1` the T/C [2] was 130 % of control, the survivor count [2] was 3 of 5 and the survivor count (dose: 12.0 mg/kg/injection, schedule: Q01DX005 (ip), vehicle: saline) was 2 of 5. For the same compound, the survivor count (dose: 12.5 mg/kg/injection, schedule: Q01DX005 (ip), vehicle: saline) was 4 of 5, the survivor count (dose: 25.0 mg/kg/injection, schedule: Q01DX005 (ip), vehicle: saline) was 0 of 5 and the survivor count (dose: 50.0 mg/kg/injection, schedule: Q01DX005 (ip), vehicle: saline) was 0 of 5. For the same compound, the survivor count (dose: 100.0 mg/kg/injection, schedule: Q01DX005 (ip), vehicle: saline) was 0 of 5 and the survivor count (dose: 200.0 mg/kg/injection, schedule: Q01DX005 (ip), vehicle: saline) was 0 of 5.

In the case of `Cn1c(=O)c2c(nnc(-c3ccc(Cl)cc3)[n+]2[O-])n(C)c1=O`, the survivor count (dose: 200.0 mg/kg/injection, schedule: Q01DX001 (ip), vehicle: Klucel (hydroxypropylcellulose) (HPC)) is reported as 2 of 6 and the survivor count (dose: 400.0 mg/kg/injection, schedule: Q01DX001 (ip), vehicle: Klucel (hydroxypropylcellulose) (HPC)) is reported as 0 of 6.

`COc1cc(OC)cc(-c2n[se]c(-c3cc(OC)cc(OC)c3)n2)c1` was tested, and the survivor count (dose: 3.12 mg/kg/injection, schedule: Q01DX009 (ip), vehicle: saline with Tween-80) was 6 of 6, the survivor count (dose: 6.25 mg/kg/injection, schedule: Q01DX009 (ip), vehicle: saline with Tween-80) was 6 of 6 and the survivor count (dose: 12.5 mg/kg/injection, schedule: Q01DX009 (ip), vehicle: saline with Tween-80) was 5 of 6. The survivor count (dose: 25.0 mg/kg/injection, schedule: Q01DX009 (ip), vehicle: saline with Tween-80) was 6 of 6, the survivor count (dose: 50.0 mg/kg/injection, schedule: Q01DX009 (ip), vehicle: saline with Tween-80) was 6 of 6 and the survivor count (dose: 100.0 mg/kg/injection, schedule: Q01DX009 (ip), vehicle: saline with Tween-80) was 6 of 6. The survivor count (dose: 200.0 mg/kg/injection, schedule: Q01DX009 (ip), vehicle: saline with Tween-80) was 5 of 6.

`CN(C)C(=[Se])[Se]C(=[Se])N(C)C` was tested, and the survivor count (dose: 60.0 mg/kg/injection, schedule: Q01DX005 (ip), vehicle: Klucel (hydroxypropylcellulose) (HPC)) was 0 of 6, the survivor count [1] was 0 of 6 and the survivor count (dose: 240.0 mg/kg/injection, schedule: Q01DX005 (ip), vehicle: Klucel (hydroxypropylcellulose) (HPC)) was 0 of 6.

`COC/C(Br)=C\SC#N` (tested in a mixture with another compound) was tested, and the survivor count (dose: 15.0 mg/kg/injection, schedule: Q01DX005 (ip), vehicle: saline with Tween-80) was 0 of 6, the survivor count (dose: 60.0 mg/kg/injection, schedule: Q01DX005 (ip), vehicle: saline with Tween-80) was 0 of 6 and the survivor count (dose: 120.0 mg/kg/injection, schedule: Q01DX005 (ip), vehicle: saline with Tween-80) was 0 of 6. The survivor count (dose: 240.0 mg/kg/injection, schedule: Q01DX005 (ip), vehicle: saline with Tween-80) was 0 of 6.

For `Cc1ccc(SC(=O)N2CCN(C(=O)Sc3ccc(C)cc3)CC2)cc1`, the survivor count (dose: 200.0 mg/kg/injection, schedule: Q01DX009 (ip), vehicle: Klucel (hydroxypropylcellulose) (HPC)) was 6 of 6.
